# Where two headings read alike, the source gives them in different places. No constants are given. Whether binding was seen depends on the method and setting. In cells and extracts the contact can be indirect. Some entries that bind do so weakly or less than the wild type.
# Sequences of proteins named here, by UniProt entry; tags and fusion partners are left off.
# UniProt Q9UKV8: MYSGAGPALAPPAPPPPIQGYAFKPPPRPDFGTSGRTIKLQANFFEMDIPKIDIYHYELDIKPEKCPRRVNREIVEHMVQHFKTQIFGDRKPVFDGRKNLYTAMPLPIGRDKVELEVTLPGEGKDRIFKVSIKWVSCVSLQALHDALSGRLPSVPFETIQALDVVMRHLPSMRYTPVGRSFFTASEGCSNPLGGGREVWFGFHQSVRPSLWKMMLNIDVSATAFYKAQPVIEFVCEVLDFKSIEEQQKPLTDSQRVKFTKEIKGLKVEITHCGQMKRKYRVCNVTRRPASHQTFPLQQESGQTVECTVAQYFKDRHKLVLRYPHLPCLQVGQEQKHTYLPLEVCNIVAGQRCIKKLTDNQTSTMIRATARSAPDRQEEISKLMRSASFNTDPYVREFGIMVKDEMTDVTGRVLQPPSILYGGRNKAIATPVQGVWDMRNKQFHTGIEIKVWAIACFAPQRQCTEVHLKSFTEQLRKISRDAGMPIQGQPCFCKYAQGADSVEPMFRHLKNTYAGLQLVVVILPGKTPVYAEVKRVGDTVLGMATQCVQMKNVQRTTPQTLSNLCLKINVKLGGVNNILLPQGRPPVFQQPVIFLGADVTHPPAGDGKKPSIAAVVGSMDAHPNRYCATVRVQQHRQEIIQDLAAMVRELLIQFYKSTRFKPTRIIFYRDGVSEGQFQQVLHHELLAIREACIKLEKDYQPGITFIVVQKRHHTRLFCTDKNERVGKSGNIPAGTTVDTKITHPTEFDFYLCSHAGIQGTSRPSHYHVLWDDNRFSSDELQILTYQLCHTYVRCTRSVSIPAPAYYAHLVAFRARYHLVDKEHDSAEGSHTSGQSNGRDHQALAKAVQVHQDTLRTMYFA
# UniProt Q96Q15: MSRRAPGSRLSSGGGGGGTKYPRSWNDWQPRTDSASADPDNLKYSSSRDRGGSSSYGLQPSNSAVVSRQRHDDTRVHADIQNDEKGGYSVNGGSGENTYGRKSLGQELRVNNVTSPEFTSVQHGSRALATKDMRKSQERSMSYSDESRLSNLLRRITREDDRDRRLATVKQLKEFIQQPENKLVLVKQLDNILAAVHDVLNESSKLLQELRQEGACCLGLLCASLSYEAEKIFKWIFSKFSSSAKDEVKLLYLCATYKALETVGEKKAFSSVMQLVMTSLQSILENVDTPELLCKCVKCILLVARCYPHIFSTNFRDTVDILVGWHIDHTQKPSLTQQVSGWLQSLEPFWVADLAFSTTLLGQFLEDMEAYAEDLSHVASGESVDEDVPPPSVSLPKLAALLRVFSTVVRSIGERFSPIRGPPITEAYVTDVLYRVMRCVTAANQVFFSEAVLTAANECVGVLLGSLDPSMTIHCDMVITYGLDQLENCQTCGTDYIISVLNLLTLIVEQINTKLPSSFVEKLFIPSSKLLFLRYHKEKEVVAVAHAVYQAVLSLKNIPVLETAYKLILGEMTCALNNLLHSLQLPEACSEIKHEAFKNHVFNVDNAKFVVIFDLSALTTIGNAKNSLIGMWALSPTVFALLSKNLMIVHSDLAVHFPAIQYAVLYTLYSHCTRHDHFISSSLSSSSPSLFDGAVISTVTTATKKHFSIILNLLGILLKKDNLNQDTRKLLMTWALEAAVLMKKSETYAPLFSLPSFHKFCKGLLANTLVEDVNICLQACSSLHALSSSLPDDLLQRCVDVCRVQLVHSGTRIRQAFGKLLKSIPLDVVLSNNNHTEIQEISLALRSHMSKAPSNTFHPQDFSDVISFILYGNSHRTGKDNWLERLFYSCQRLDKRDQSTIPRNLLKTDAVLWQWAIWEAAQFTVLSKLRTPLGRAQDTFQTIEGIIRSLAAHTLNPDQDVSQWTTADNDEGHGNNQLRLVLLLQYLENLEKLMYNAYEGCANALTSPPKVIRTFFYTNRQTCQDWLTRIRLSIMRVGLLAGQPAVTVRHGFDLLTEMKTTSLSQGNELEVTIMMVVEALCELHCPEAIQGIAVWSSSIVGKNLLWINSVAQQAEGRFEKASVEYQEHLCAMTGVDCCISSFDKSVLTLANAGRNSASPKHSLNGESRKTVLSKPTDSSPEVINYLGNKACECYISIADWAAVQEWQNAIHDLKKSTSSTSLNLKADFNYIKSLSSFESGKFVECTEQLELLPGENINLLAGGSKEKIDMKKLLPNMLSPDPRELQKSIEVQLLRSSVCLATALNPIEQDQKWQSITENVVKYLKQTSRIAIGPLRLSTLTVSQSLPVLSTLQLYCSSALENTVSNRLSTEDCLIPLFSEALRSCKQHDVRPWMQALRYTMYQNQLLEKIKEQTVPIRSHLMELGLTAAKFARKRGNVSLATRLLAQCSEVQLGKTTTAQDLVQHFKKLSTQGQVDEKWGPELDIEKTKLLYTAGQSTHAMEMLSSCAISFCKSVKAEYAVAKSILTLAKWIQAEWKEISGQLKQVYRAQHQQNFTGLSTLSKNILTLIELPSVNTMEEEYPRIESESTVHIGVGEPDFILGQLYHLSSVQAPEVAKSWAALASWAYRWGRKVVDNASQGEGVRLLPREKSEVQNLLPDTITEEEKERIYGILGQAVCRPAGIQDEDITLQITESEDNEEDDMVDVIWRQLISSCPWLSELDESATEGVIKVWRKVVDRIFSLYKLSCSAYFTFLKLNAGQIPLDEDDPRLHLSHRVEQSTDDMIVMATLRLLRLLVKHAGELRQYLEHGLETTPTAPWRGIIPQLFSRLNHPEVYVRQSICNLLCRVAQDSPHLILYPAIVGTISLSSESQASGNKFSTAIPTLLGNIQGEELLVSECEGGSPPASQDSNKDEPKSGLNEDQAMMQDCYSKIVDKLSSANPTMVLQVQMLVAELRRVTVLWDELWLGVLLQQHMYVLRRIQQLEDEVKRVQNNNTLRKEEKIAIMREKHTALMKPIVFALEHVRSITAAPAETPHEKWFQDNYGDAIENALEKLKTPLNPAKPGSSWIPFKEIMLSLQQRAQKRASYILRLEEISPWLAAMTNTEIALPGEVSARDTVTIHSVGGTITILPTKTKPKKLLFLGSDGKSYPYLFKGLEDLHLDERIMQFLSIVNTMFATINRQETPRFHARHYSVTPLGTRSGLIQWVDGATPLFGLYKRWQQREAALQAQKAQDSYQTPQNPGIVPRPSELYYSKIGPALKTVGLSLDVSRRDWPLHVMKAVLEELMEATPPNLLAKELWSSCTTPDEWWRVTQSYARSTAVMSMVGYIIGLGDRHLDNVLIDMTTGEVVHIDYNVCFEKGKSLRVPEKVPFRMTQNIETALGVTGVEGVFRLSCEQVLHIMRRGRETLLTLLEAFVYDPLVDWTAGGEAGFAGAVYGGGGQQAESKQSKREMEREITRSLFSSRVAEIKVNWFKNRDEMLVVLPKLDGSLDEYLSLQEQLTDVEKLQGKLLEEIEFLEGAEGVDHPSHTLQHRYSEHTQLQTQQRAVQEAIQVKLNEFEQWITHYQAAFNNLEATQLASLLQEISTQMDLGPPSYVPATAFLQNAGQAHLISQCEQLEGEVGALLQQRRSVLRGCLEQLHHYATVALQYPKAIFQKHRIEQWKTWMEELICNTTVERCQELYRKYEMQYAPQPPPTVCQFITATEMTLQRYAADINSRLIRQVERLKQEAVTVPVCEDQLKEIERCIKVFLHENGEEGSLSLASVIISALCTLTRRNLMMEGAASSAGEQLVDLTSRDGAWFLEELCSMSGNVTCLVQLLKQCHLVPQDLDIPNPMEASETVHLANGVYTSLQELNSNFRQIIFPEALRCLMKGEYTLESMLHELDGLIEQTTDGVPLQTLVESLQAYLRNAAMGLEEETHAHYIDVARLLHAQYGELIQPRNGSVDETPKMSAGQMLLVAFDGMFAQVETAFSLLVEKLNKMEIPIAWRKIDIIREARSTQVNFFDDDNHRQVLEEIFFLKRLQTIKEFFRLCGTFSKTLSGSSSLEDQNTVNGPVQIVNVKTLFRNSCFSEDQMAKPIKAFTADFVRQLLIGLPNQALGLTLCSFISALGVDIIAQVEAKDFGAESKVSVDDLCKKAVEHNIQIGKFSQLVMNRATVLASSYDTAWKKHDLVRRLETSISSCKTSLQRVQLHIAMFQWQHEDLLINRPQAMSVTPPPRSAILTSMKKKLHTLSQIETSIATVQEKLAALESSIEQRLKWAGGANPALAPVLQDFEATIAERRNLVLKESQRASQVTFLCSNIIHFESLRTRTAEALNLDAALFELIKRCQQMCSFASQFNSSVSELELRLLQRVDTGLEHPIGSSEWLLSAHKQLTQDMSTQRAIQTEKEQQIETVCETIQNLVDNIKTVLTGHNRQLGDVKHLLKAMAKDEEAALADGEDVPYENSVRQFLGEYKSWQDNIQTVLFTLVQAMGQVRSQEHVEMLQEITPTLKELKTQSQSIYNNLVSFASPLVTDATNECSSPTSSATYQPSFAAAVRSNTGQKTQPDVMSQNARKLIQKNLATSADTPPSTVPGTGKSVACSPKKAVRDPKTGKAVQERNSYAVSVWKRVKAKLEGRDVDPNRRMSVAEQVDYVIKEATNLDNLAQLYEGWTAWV
# T1: Ig-TRIM71 (human) (UniProt Q2Q1W2)
# T1 sequence: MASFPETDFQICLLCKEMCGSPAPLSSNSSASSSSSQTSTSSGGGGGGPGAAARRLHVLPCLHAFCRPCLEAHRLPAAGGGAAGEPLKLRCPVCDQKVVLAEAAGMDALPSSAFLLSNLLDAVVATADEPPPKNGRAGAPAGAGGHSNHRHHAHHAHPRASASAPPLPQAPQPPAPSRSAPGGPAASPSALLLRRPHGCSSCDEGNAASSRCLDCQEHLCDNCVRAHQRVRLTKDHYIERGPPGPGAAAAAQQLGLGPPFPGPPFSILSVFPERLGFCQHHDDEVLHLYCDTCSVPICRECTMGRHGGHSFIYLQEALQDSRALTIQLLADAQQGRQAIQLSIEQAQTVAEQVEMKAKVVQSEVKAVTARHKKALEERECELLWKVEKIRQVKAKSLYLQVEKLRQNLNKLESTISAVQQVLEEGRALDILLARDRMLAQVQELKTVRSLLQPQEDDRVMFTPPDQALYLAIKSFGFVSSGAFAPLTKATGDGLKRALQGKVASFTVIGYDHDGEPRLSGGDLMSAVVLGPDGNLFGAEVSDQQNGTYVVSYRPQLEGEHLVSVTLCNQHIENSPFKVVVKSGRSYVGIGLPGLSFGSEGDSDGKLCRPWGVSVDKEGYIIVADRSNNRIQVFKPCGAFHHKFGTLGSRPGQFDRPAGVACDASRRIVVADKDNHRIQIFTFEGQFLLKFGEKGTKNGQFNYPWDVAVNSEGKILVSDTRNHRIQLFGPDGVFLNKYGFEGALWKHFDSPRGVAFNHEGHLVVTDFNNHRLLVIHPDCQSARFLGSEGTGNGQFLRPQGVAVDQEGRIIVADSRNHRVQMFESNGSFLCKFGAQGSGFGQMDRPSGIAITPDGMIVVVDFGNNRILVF
# T2: endogenous SMG7 (HepG2) (human (endogenous in HepG2)) (UniProt Q92540)
# T2 sequence: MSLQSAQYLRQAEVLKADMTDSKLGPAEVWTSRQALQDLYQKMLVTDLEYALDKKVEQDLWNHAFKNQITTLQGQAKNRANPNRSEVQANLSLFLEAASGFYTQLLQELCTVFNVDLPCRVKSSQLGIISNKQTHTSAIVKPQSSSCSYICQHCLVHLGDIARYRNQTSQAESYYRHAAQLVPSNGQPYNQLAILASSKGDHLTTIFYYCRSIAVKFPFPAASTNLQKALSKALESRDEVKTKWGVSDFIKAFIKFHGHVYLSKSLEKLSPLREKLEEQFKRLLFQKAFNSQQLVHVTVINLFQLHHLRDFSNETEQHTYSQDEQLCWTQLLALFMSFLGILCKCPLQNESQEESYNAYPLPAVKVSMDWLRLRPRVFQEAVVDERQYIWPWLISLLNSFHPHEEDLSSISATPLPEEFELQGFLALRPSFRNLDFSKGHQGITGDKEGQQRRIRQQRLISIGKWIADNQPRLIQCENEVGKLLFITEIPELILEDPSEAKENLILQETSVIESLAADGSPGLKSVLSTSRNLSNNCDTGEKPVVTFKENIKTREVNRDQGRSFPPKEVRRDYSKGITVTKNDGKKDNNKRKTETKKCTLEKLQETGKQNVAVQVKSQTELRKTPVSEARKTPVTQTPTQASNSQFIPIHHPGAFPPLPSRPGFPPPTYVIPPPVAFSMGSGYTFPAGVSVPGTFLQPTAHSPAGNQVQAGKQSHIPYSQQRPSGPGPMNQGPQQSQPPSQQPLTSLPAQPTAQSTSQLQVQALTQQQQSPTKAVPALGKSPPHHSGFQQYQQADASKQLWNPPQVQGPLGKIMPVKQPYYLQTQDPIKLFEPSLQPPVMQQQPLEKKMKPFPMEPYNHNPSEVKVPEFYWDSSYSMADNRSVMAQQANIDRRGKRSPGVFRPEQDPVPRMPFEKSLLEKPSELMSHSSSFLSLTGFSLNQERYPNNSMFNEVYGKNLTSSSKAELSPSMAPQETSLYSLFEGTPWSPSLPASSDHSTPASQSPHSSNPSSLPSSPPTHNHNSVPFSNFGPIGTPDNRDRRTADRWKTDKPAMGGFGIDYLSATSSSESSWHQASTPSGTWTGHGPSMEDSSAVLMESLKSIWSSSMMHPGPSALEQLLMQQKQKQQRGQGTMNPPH
# How the values were obtained:
# [1] = target: T1, Ig-TRIM71 (human); experiment: co-IP; Ig-TRIM71 overexpressed in HEK293T, precipitated with Protein G Dynabeads (6 h, 4°C; IP buffer: 10 mM HEPES pH 7.5, 2 mM MgCl2, 10 mM KCl, 0.5% NP-40, 0.5 mM EDTA, 150 mM NaCl, 1 mM DTT); partners found by western blot
# [2] = target: T2, endogenous SMG7 (HepG2) (human (endogenous in HepG2)); experiment: co-IP; endogenous SMG7 precipitated from HepG2 lysate with antibody pre-coupled to Protein G Dynabeads; western blot
# [3] = target: T1, Ig-TRIM71 (human); experiment: co-IP; Ig-TRIM71 overexpressed in HEK293T, precipitated with Protein G Dynabeads (6 h, 4°C; IP buffer: 10 mM HEPES pH 7.5, 2 mM MgCl2, 10 mM KCl, 0.5% NP-40, 0.5 mM EDTA, 150 mM NaCl, 1 mM DTT); partners found by western blot; remark: listed apart in the source
Molecule,binding [2],other results
AGO2 (from UniProt Q9UKV8 1-859),–,binding [1]: binds
SMG1 (HepG2) (from UniProt Q96Q15 1-3661),binds,–
"SMG7 (protein, UniProt Q92540 1-1137) MSLQSAQYLRQAEVLKADMTDSKLGPAEVWTSRQALQDLYQKMLVTDLEYALDKKVEQDLWNHAFKNQITTLQGQAKNRANPNRSEVQANLSLFLEAASGFYTQLLQELCTVFNVDLPCRVKSSQLGIISNKQTHTSAIVKPQSSSCSYICQHCLVHLGDIARYRNQTSQAESYYRHAAQLVPSNGQPYNQLAILASSKGDHLTTIFYYCRSIAVKFPFPAASTNLQKALSKALESRDEVKTKWGVSDFIKAFIKFHGHVYLSKSLEKLSPLREKLEEQFKRLLFQKAFNSQQLVHVTVINLFQLHHLRDFSNETEQHTYSQDEQLCWTQLLALFMSFLGILCKCPLQNESQEESYNAYPLPAVKVSMDWLRLRPRVFQEAVVDERQYIWPWLISLLNSFHPHEEDLSSISATPLPEEFELQGFLALRPSFRNLDFSKGHQGITGDKEGQQRRIRQQRLISIGKWIADNQPRLIQCENEVGKLLFITEIPELILEDPSEAKENLILQETSVIESLAADGSPGLKSVLSTSRNLSNNCDTGEKPVVTFKENIKTREVNRDQGRSFPPKEVRRDYSKGITVTKNDGKKDNNKRKTETKKCTLEKLQETGKQNVAVQVKSQTELRKTPVSEARKTPVTQTPTQASNSQFIPIHHPGAFPPLPSRPGFPPPTYVIPPPVAFSMGSGYTFPAGVSVPGTFLQPTAHSPAGNQVQAGKQSHIPYSQQRPSGPGPMNQGPQQSQPPSQQPLTSLPAQPTAQSTSQLQVQALTQQQQSPTKAVPALGKSPPHHSGFQQYQQADASKQLWNPPQVQGPLGKIMPVKQPYYLQTQDPIKLFEPSLQPPVMQQQPLEKKMKPFPMEPYNHNPSEVKVPEFYWDSSYSMADNRSVMAQQANIDRRGKRSPGVFRPEQDPVPRMPFEKSLLEKPSELMSHSSSFLSLTGFSLNQERYPNNSMFNEVYGKNLTSSSKAELSPSMAPQETSLYSLFEGTPWSPSLPASSDHSTPASQSPHSSNPSSLPSSPPTHNHNSVPFSNFGPIGTPDNRDRRTADRWKTDKPAMGGFGIDYLSATSSSESSWHQASTPSGTWTGHGPSMEDSSAVLMESLKSIWSSSMMHPGPSALEQLLMQQKQKQQRGQGTMNPPH",–,binding [3]: binds
"UPF1 (HepG2) (protein, UniProt Q92900 1-1129) MSVEAYGPSSQTLTFLDTEEAELLGADTQGSEFEFTDFTLPSQTQTPPGGPGGPGGGGAGGPGGAGAGAAAGQLDAQVGPEGILQNGAVDDSVAKTSQLLAELNFEEDEEDTYYTKDLPIHACSYCGIHDPACVVYCNTSKKWFCNGRGNTSGSHIVNHLVRAKCKEVTLHKDGPLGETVLECYNCGCRNVFLLGFIPAKADSVVVLLCRQPCASQSSLKDINWDSSQWQPLIQDRCFLSWLVKIPSEQEQLRARQITAQQINKLEELWKENPSATLEDLEKPGVDEEPQHVLLRYEDAYQYQNIFGPLVKLEADYDKKLKESQTQDNITVRWDLGLNKKRIAYFTLPKTDSGNEDLVIIWLRDMRLMQGDEICLRYKGDLAPLWKGIGHVIKVPDNYGDEIAIELRSSVGAPVEVTHNFQVDFVWKSTSFDRMQSALKTFAVDETSVSGYIYHKLLGHEVEDVIIKCQLPKRFTAQGLPDLNHSQVYAVKTVLQRPLSLIQGPPGTGKTVTSATIVYHLARQGNGPVLVCAPSNIAVDQLTEKIHQTGLKVVRLCAKSREAIDSPVSFLALHNQIRNMDSMPELQKLQQLKDETGELSSADEKRYRALKRTAERELLMNADVICCTCVGAGDPRLAKMQFRSILIDESTQATEPECMVPVVLGAKQLILVGDHCQLGPVVMCKKAAKAGLSQSLFERLVVLGIRPIRLQVQYRMHPALSAFPSNIFYEGSLQNGVTAADRVKKGFDFQWPQPDKPMFFYVTQGQEEIASSGTSYLNRTEAANVEKITTKLLKAGAKPDQIGIITPYEGQRSYLVQYMQFSGSLHTKLYQEVEIASVDAFQGREKDFIILSCVRANEHQGIGFLNDPRRLNVALTRARYGVIIVGNPKALSKQPLWNHLLNYYKEQKVLVEGPLNNLRESLMQFSKPRKLVNTINPGARFMTTAMYDAREAIIPGSVYDRSSQGRPSSMYFQTHDQIGMISAGPSHVAAMNIPIPFNLVMPPMPPPGYFGQANGPAAGRGTPKGKTGRGGRQKNRFGLPGPSQTNLPNSQASQDVASQPFSQGALTQGYISMSQPSQMSQPGLSQPELSQDSYLGDEFKSQIDVALSQDSTYQGERAYQHGGVTGLSQY",binds,–

# Source: publication PMC7145526, “The mRNA repressor TRIM71 cooperates with Nonsense-Mediated Decay factors to destabilize the mRNA of CDKN1A/p21”
